Assay results published in patent publication EP4574212A1 (Centre National de la Recherche Scientifique, priority 2023, dated 2025).
For some of these results: HELM strings list residues between dots; [ac] is acetyl, [am] amide, other brackets name non-standard units. Ends that are not written are not given here. * marks the point of attachment. Boc = CC(C)(C)OC(=O)*

Legend:
[1] = general procedure: Fmoc solid-phase peptide synthesis; 2-chlorotrityl chloride resin loaded with Fmoc-Gly-OH (0.55 mmol/g); HATU/DIPEA; PyBop/DIPEA for cyclisation; conditions: for cyclisation yield: cyclisation step; for conjugation yield: conjugation step; for step yield: late stage modification step
[2] = peptide synthesis; conditions: for step yield: late stage modification step

H2N-K(N3)-A-K(N3)-P-G-K(N3)-A-K(N3)-P-G-H
cyclisation yield [1]: 60%

RAFT-(tert-butyl(2-(4-(2-((5-X-5-oxopentyl)amino)-2-oxoethyl)benzamido)phenyl) carbamate)4
conjugation yield [1]: 64%

RAFT-(tert-butyl(2-(4-(2-(((1-X-1H-1,2,3-triazol-4-yl)methyl)amino)-2-oxoethyl) benzamido)phenyl)carbamate)4
conjugation yield [1]: 36%

RAFT-(tert-butyl (2-(4-(2-X-2-oxoethyl)benzamido)phenyl)carbamate)2
conjugation yield [1]: 75%

PEPTIDE1{A.A.[K_BzA].P.G.A.A.[K_BzA].P.G}$PEPTIDE1,PEPTIDE1,1:R1-10:R2$$$V2.0
step yield [1]: 42%

RAFT-(4-(2-((11-X-1-oxoundecyl)amino)-2-oxoethyl)-N-(2-aminophenyl)benzamide)4
conjugation yield [1]: 15%

RAFT-( N^1-(4-(2-amino-2-oxoethyl)phenyl)-N^8-(trityloxy)octane diamide)2
conjugation yield [1]: 59%

RAFT-(N-(2-aminophenyl)-4-(2-(((1-X-1H-1,2,3-triazol-4-yl)methyl)amino)-2-oxoethyl) benzamide)4
step yield [2]: 87%

RAFT-(4-(2-((5-X-5-oxopentyl)amino)-2-oxoethyl)-N-(2-aminophenyl)benzamide)4
step yield [2]: 13%

H2N-K(Boc)-A-K(Boc)-P-G-K(Boc)-A-K(Boc)-P-G-H
cyclisation yield [1]: 40%

RAFT-(4-(2-X-2-oxoethyl)-N-(2-aminophenyl)benzamide)4
conjugation yield ([2]; conjugation step): 40%

RAFT-(N-hydroxy-5-(1-methyl-1H-1,2,3-triazol-4-yl)pentanamide)4
step yield [1]: 33%

RAFT-(methyl 8-(hydroxyamino)-8-oxooctanoate)4 [MuH2121]
step yield ([1]; run 1): 14%

RAFT-(5-(1-X-1H-1,2,3-triazol-4-yl)-N-(trityloxy)pentanamide)4
step yield [1]: 51%

H-AAK(Boc)PGAAK(Boc)PGH
cyclisation yield [1]: 71%

RAFT-(methyl 8-(hydroxyamino)-8-oxooctanoate)4 [MuH2120]
step yield ([1]; run 1): 12%
